Holding throughout (experiment): glycan array binding signal (z-score within array); higher = stronger binding
What all share (details): glycan notation: IUPAC condensed, linker removed

Test [1] concerns the target GlcNAc(a1-4)Gal(b1-3)GlcNAc. In short, it runs like this: (§1)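 Glycan array binding is given as a within-array Z-score, which can be read as non-binding when negative. The arrays, 3228 of them, came from the Consortium for Functional Glycomics database and were retained only where the protein sequence was available. Z-scores were averaged across arrays of the same protein sequence at different concentrations or buffers and across linkers.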

Test [2] addresses GlcNAc(a1-4)Gal(b1-4)GalNAc. The essentials: as §1
Test [3] addresses GlcNAc(a1-4)Gal(b1-4)GlcNAc. In short, it runs like this:
as §1

Test [4] concerns the target GlcNAc(a1-4)Gal(b1-4)GlcNAc(b1-3)Gal(b1-4)Glc. The essentials:
as §1

Test [5] deals with GlcNAc(a1-4)Gal(b1-4)GlcNAc(b1-3)Gal(b1-4)GlcNAc. The essentials:
as §1

The target of test [6] is GlcNAc(a1-4)Gal(b1-4)GlcNAc(b1-3)Gal(b1-4)GlcNAc(b1-3)Gal(b1-4)GlcNAc. The essentials:
as §1

In test [7] the target is GlcNAc(a1-4)Gal(b1-4)GlcNAc(b1-3)Gal(b1-4)[Fuc(a1-3)]GlcNAc(b1-3)Gal(b1-4)[Fuc(a1-3)]GlcNAc. In short, it runs like this:
as §1

The target in test [8] is GlcNAc(a1-6)Gal(b1-4)GlcNAc. The essentials: as §1
The target in test [9] is GlcNAc(b1-2)Gal(b1-3)GalNAc. In short, it runs like this: as §1
Test [10] deals with GlcNAc(b1-2)Man(a1-3)[GlcNAc(b1-2)Man(a1-6)]Man(b1-4)GlcNAc(b1-4)GlcNAc. In short, it runs like this: as §1
Test [11] addresses GlcNAc(b1-2)Man(a1-3)[GlcNAc(b1-2)Man(a1-6)]Man(b1-4)GlcNAc(b1-4)[Fuc(a1-6)]GlcNAc. In short, it runs like this:
as §1

Test [12] addresses GlcNAc(b1-2)Man(a1-3)[GlcNAc(b1-4)][GlcNAc(b1-2)Man(a1-6)]Man(b1-4)GlcNAc(b1-4)GlcNAc. The essentials:
as §1

The target in test [13] is GlcNAc(b1-2)Man(a1-3)[GlcNAc(b1-4)][GlcNAc(b1-2)Man(a1-6)]Man(b1-4)GlcNAc(b1-4)[Fuc(a1-6)]GlcNAc. The essentials: as §1
The target in test [14] is GlcNAc(b1-2)[GlcNAc(b1-4)]Man(a1-3)[GlcNAc(b1-2)Man(a1-6)]Man(b1-4)GlcNAc(b1-4)GlcNAc. In short, it runs like this: as §1
For test [15], the target named is GlcNAc(b1-2)[GlcNAc(b1-4)]Man(a1-3)[GlcNAc(b1-4)][GlcNAc(b1-2)Man(a1-6)]Man(b1-4)GlcNAc(b1-4)GlcNAc. The essentials: as §1
The target in test [16] is GlcNAc(b1-2)[GlcNAc(b1-4)]Man(a1-3)[GlcNAc(b1-4)][GlcNAc(b1-2)[GlcNAc(b1-6)]Man(a1-6)]Man(b1-4)GlcNAc(b1-4)GlcNAc. The essentials:
as §1

In test [17] the target is GlcNAc(b1-2)[GlcNAc(b1-4)]Man(a1-3)[GlcNAc(b1-4)][GlcNAc(b1-2)[GlcNAc(b1-6)]Man(a1-6)]Man(b1-4)GlcNAc(b1-4)[Fuc(a1-6)]GlcNAc. The essentials: as §1
Test [18] concerns the target GlcNAc(b1-2)[GlcNAc(b1-6)]Man(a1-6)[GlcNAc(b1-2)Man(a1-3)]Man(b1-4)GlcNAc(b1-4)GlcNAc. In short, it runs like this:
as §1

The target of test [19] is GlcNAc(b1-2)[GlcNAc(b1-6)]Man(a1-6)[GlcNAc(b1-2)Man(a1-3)]Man(b1-4)GlcNAc(b1-4)[Fuc(a1-6)]GlcNAc. The essentials:
as §1

The text below walks through data of the supplement of paper PMC8728848.

The other results are listed elsewhere or left out.

B1: ArathEULS3 TAP (Arabidopsis thaliana) (protein)
chain: IDENLYFQGGSMDEKTTGWRGGHVVEGLAGELEQLRARLEHHPQGQREPGGGGSLEITSLYKKAGFMEHHHQHHRHHQRDDGEDDRQSFGVPPPHVDAPPQPHGLYQSQPHFDPYAPTPQAPAPYRSETQFEPHAPPPYRSEPYFETPAPPPSFGHVSHVGHQSPNESYPPEHHRYGGYQQPSNSLLESHGDHSGVTHVAHHSSNQPQSSSGVYHKPDENRLPDNLAGLAGRATVKVYSKAEPNYNLTIRDGKVILAPADPSDEAQHWYKDEKYSTKVKDADGHPCFALVNKATGEAMKHSVGATHPVHLIRYVPDKLDESVLWTESKDFGDGYRTIRMVNNTRLNVDAYHGDSKSGGVRDGTTIVLWDWNKGDNQLWKIFPF
For the molecule B1, the “glycan array binding signal (z-score)” value is 0.727 in test [1]; -1.28 in [2]; 0.191 in test [3]; -1.18 in test [4]; 1.79 in test [5]; 0.236 in [6]. Moreover, the “glycan array binding signal (z-score)” value in [7] was 0.794; in test [8], -0.446; in [9], 0.069; in test [10] it was -0.769; in [11] it was -0.928; in test [12] it was -2.43. Further, the “glycan array binding signal (z-score)” value in test [13] is 0.473; in test [14], 1.43; in test [15], -0.62; in test [16] it was -0.38; in [17], -0.659; in test [18] it was -1.47. In test [19], the “glycan array binding signal (z-score)” value came to 0.323.
